# Results reported in the supplement of paper PMC8975748.
# Where a name gives a salt, the structure may show the parent alone. ± gives the standard deviation of the averaged measurements. Some of the results follow. These are raw signals, not scaled to a control.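 One yeast strain harboring four plasmids, each bearing a fluorescent protein plus an amino-acid or uracil synthesis gene, founds the community. Random loss of plasmids produces mixed prototroph and auxotroph subpopulations. Cells were fixed, then counted with automated confocal fluorescence imaging, with DMSO-treated wells as vehicle reference.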
# Test system: Saccharomyces cerevisiae BY4741 SeMeCo community
# Assay: imaged cell count per well (cells); higher = more cells
# Conditions: 10 µM; 24 h; SM minimal medium
# Procedure: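 Same SeMeCo high-content imaging drug screen: Selleck FDA-approved drugs at 10 µM, 24 h in SM medium, 384-well plates, 3 replicates.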
row,SMILES,imaged cell count per well
1,CO/N=C(\C(=O)N[C@@H]1C(=O)N2C(C(=O)O)=C(CSc3nc(=O)c(O)nn3C)CS[C@H]12)c1csc(N)n1 [Ceftriaxone Sodium Trihydrate],23500 ± 3600
2,CN1CCN(c2cc3c(cc2F)c(=O)c(C(=O)O)cn3-c2ccc(F)cc2)CC1 [Difloxacin hydrochloride],27500 ± 4500
3,CC(=O)[C@@]1(O)CC[C@H]2[C@@H]3CCC4=CC(=O)CCC4=C3[C@@H](c3ccc(N(C)C)cc3)C[C@@]21C [Ulipristal],26800 ± 3500
4,C=C[C@]1(C)C[C@@H](OC(=O)CS[C@@H]2C[C@H]3CC[C@@H](C2)N3C)[C@]2(C)[C@H](C)CC[C@]3(CCC(=O)[C@H]32)[C@@H](C)[C@@H]1O [Retapamulin],24900 ± 430
5,CCCN1CCCC[C@H]1C(=O)Nc1c(C)cccc1C [Ropivacaine HCl],18700 ± 5000
6,CC1=C[C@H]2C(=O)O[C@H]3C[C@@H](C/C=C(\C)C[C@@H](C)/C=C/C=C4\CO[C@H](/C1=N\O)[C@@]42O)O[C@@]1(CC[C@H](C)[C@@H](C)O1)C3.CC[C@H]1O[C@]2(CC[C@@H]1C)C[C@@H]1C[C@@H](C/C=C(\C)C[C@@H](C)/C=C/C=C3\CO[C@@H]4/C(=N\O)C(C)=C[C@@H](C(=O)O1)[C@]34O)O2 [Milbemycin Oxime],25500 ± 7100
7,Cc1nc(C)c(Cl)c(O)c1Cl [Clopidol],25400 ± 5000
8,N#CC(c1ccc(Cl)cc1)c1c(Cl)cc(-n2ncc(=O)[nH]c2=O)cc1Cl (stereo not drawn) [Diclazuril],20400 ± 2300
9,CCC[C@@H]1C[C@@H](C(=O)N[C@@H]([C@H]2O[C@H](SC)[C@H](O)[C@@H](O)[C@H]2O)[C@@H](C)O)N(C)C1 [Lincomycin HCl],25000 ± 4200
10,CCCCC(=O)O[C@H]1CC[C@H]2[C@@H]3CCc4cc(O)ccc4[C@H]3CC[C@]12C [Estradiol valerate],27300 ± 5600
11,C=C1c2cccc(O)c2C(=O)C2=C(O)[C@]3(O)C(=O)C(C(N)=O)=C(O)[C@@H](N(C)C)[C@@H]3[C@@H](O)[C@H]12 [Methacycline HCl],22300 ± 6300
12,O=C(Cn1cnnn1)N[C@@H]1C(=O)N2C(C(=O)O)=C(CSc3nncs3)CS[C@H]12 [Ceftezole],28600 ± 3500
13,"OCc1ccc(Cl)cc1Cl [2,4-dichlorobenzyl alcohol]",20800 ± 4600
14,CC(C)COc1ccc(CNC(=O)N(Cc2ccc(F)cc2)C2CCN(C)CC2)cc1 [Pimavanserin],21700 ± 8800
15,COc1ccc2[nH]c([S+]([O-])Cc3ncc(C)c(OC)c3C)nc2c1 (stereo not drawn) [Omeprazole],26000 ± 2700
16,CO/N=C1\C[C@]2(C[C@@H]3C[C@@H](C/C=C(\C)C[C@@H](C)/C=C/C=C4\CO[C@@H]5[C@H](O)C(C)=C[C@@H](C(=O)O3)[C@]45O)O2)O[C@H](/C(C)=C/C(C)C)[C@H]1C [Moxidectin],23200 ± 6900
17,CCCN(CCc1cccs1)[C@H]1CCc2c(O)cccc2C1 [Rotigotine],22500 ± 7100
18,O=S(=O)(O)CCCCOC[C@H]1O[C@@H]2O[C@H]3[C@H](O)[C@@H](O)[C@@H](O[C@H]4[C@H](O)[C@@H](O)[C@@H](O[C@H]5[C@H](O)[C@@H](O)[C@@H](O[C@H]6[C@H](O)[C@@H](O)[C@@H](O[C@H]7[C@H](O)[C@@H](O)[C@@H](O[C@H]8[C@H](O)[C@@H](O)[C@@H](O[C@H]1[C@H](O)[C@H]2O)O[C@@H]8CO)O[C@@H]7COCCCCS(=O)(=O)O)O[C@@H]6COCCCCS(=O)(=O)O)O[C@@H]5COCCCCS(=O)(=O)O)O[C@@H]4COCCCCS(=O)(=O)O)O[C@@H]3COCCCCS(=O)(=O)O,22600 ± 6700
19,C#CCC(Cc1cnc2nc(N)nc(N)c2n1)c1ccc(C(=O)N[C@@H](CCC(=O)O)C(=O)O)cc1 (stereo partly drawn) [Pralatrexate],13500 ± 2100

row,SMILES,imaged cell count per well
1,CO/N=C(\C(=O)N[C@@H]1C(=O)N2C(C(=O)O)=C(CSc3nc(C)c(CC(=O)O)s3)CS[C@H]12)c1csc(N)n1 [Cefodizime Sodium],27500 ± 4900
2,Cc1nnc(NS(=O)(=O)c2ccc(N)cc2)s1 [Sulfamethizole],27700 ± 4800
3,COc1cc(/C=C/C(=O)N2CCN(CC(=O)N3CCCC3)CC2)cc(OC)c1OC [Cinepazide maleate],18600 ± 2100
4,COc1cccc2c1C(=O)c1c(O)c3c(c(O)c1C2=O)CC(O)(C(=O)CO)CC3OC1CC(N)C(O)C(C)O1 (stereo not drawn) [Doxorubicin (Adriamycin) HCl],11400 ± 4000
5,CC(C)[C@H](N)C(=O)OCC(CO)OCn1cnc2c(=O)[nH]c(N)nc21 (stereo partly drawn) [Valganciclovir HCl],19900 ± 4300
6,CN(C)[C@@H]1C(O)=C(C(N)=O)C(=O)[C@@]2(O)C(O)=C3C(=O)c4c(O)cccc4[C@@](C)(O)[C@H]3[C@H](O)[C@@H]12 [Oxytetracycline (Terramycin)],15000 ± 800
7,O=C1N=C(O)NC1(c1ccccc1)c1ccccc1 [Phenytoin Sodium],17400 ± 2700
8,Cc1nnc(SCC2=C(C(=O)O)N3C(=O)[C@@H](NC(=O)Cn4cnnn4)[C@H]3SC2)s1 [Cefazolin Sodium],26600 ± 2500
9,N[C@H]1CONC1=O [L-Cycloserine],12600 ± 2200
10,CN(C)CCc1c[nH]c2ccc(C[C@H]3COC(=O)N3)cc12 [Zolmitriptan],22600 ± 980
11,O=C(Cn1ccnc1[N+](=O)[O-])NCc1ccccc1 [Benznidazole],23300 ± 2900
12,c1ccc(-c2ccc(C(c3ccccc3)n3ccnc3)cc2)cc1 (stereo not drawn) [Bifonazole],16900 ± 3000
13,O=c1n(CCCN2CCN(c3cccc(Cl)c3)CC2)nc2ccccn12 [Trazodone HCl],22200 ± 3400
14,CO[C@@H]1[C@@H](O[C@@H]2O[C@H](C)[C@@H](O[C@H]3C[C@@](C)(O)[C@@H](O)[C@H](C)O3)[C@H](N(C)C)[C@H]2O)[C@@H](CC=O)C[C@@H](C)[C@@H](O[C@H]2CC[C@H](N(C)C)[C@@H](C)O2)/C=C/C=C/C[C@@H](C)OC(=O)C[C@H]1OC(C)=O [Acetylspiramycin (ASPM)],26700 ± 8900
15,C[C@]12CCC3=C4CCC(=O)C=C4CC[C@H]3[C@@H]1CC[C@@]2(O)CC#N [Dienogest],25700 ± 3000
16,CC(C)c1c(C(=O)Nc2ccccc2)c(-c2ccccc2)c(-c2ccc(F)cc2)n1CC[C@@H](O)C[C@@H](O)CC(=O)O [Atorvastatin Calcium],11100 ± 2400
17,CC(=O)O[C@H]1C[C@@H]2CC[C@@H]3[C@H](CC[C@@]4(C)[C@H]3C[C@H]([N+]3(C)CCCCC3)[C@@H]4OC(C)=O)[C@@]2(C)C[C@@H]1N1CCCCC1 [Vecuronium Bromide],24100 ± 8200
18,CO/N=C(\C(=O)N[C@@H]1C(=O)N2C(C(=O)OCOC(=O)C(C)(C)C)=C(/C=C\c3scnc3C)CS[C@H]12)c1csc(N)n1 [Cefditoren Pivoxil],26800 ± 4500
19,CCOC(=O)C1=C(C)NC(C)=C(C(=O)OC)C1c1cccc(Cl)c1Cl (stereo not drawn) [Felodipine],24500 ± 2200

# Taken from above:
# In imaged cell count per well, CO[C@@H]1[C@@H](O[C@@H]2O[C@H](C)[C@@H](O[C@H]3C[C@@](C)(O)[C@@H](O)[C@H](C)O3)[C@H](N(C)C)[C@H]2O)[C@@H](CC=O)C[C@@H](C)[C@@H](O[C@H]2CC[C@H](N(C)C)[C@@H](C)O2)/C=C/C=C/C[C@@H](C)OC(=O)C[C@H]1OC(C)=O [Acetylspiramycin (ASPM)] has the entry 26700 ± 8900
# In imaged cell count per well, CC(=O)O[C@H]1C[C@@H]2CC[C@@H]3[C@H](CC[C@@]4(C)[C@H]3C[C@H]([N+]3(C)CCCCC3)[C@@H]4OC(C)=O)[C@@]2(C)C[C@@H]1N1CCCCC1 [Vecuronium Bromide] has the entry 24100 ± 8200
# In imaged cell count per well, CO/N=C(\C(=O)N[C@@H]1C(=O)N2C(C(=O)O)=C(CSc3nc(C)c(CC(=O)O)s3)CS[C@H]12)c1csc(N)n1 [Cefodizime Sodium] has the entry 27500 ± 4900
